Values from PubChem BioAssay AID1259254 (NCATS, 2017).

- Screen: 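Finding genes that stop cells copying their DNA twice in one cycle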 (primary screen)
- Cell system: human HCT116 colorectal cancer cells
- Reagent: single siRNA against human genes
- Duration: 3 days
- Detection: 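Imaged Hoechst DNA stain sorts each cell into a cycle phase by DNA amount; per plate, G2 fraction set to 0% for non-targeting and 100% for GMNN siRNA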
- Direction: G2 robust z-score: higher = more G2 cells, more excess DNA replication
- Rule for the call: 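Active siRNAs have a G2 robust z of 5 or more median absolute deviations over the median, which in these data means about 38% or higher of GMNN control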
Here is a random part of about 59,000 reagents. Over the whole deposit, about 1,550 (2.6%) were called active. 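G2 share is only a proxy for re-replication; each gene was hit by three separate siRNAs, and active genes were retested.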 Entries without a mark were called inactive. Reagents against one gene are numbered here. Further read-outs or replicates are left out here. Not given: the amount of reagent.

G2 robust z-score, by gene and reagent
DNAAF2 (dynein axonemal assembly factor 2): #1 2.32; #2 0.797; #3 0.829
SLFN13 (schlafen family member 13): #1 -0.483; #2 -0.794; #3 -0.867
PFN1P3 (profilin 1 pseudogene 3): #1 1.65; #2 -0.309; #3 0.804
CLEC1A (C-type lectin domain family 1 member A): #1 -1.28; #2 0.676; #3 0.968
GALNTL6 (polypeptide N-acetylgalactosaminyltransferase like 6): #1 1.68; #2 -0.357; #3 -0.377
DOLK (dolichol kinase): #1 -1.32; #2 -0.192; #3 1.02
TNNC1 (troponin C1, slow skeletal and cardiac type): #1 -1.18; #2 -0.883; #3 0.141
KIF3B (kinesin family member 3B): #1 -1.15; #2 1.12; #3 -0.482
MPC1L: #1 4.97; #2 2.48; #3 -1.15
CTNNA3 (catenin alpha 3): #1 -0.273; #2 -0.767; #3 -0.704

Copied from the entries so far for reference:
G2 robust z-score, by gene and reagent
SLFN13 (schlafen family member 13): #2 -0.794; #3 -0.867
PFN1P3 (profilin 1 pseudogene 3): #1 1.65; #2 -0.309

The listing continues:
G2 robust z-score, by gene and reagent
NPAS1 (neuronal PAS domain protein 1): #1 -0.2; #2 3.33; #3 -1.92
UBE2K (ubiquitin conjugating enzyme E2 K): #1 -0.274; #2 -0.26; #3 0.41
IFI30 (IFI30 lysosomal thiol reductase): #1 0.467; #2 3.42; #3 0.437
MAGEA10 (MAGE family member A10): #1 -0.0646; #2 1.09; #3 -0.834
LRRC75B (leucine rich repeat containing 75B): #1 -0.814; #2 3.2; #3 0.29
RUBCN (rubicon autophagy regulator): #1 -0.602; #2 1.14; #3 3.25
LINC00545 (long intergenic non-protein coding RNA 545): #1 0.0316; #2 1.54; #3 -0.396
RAF1 (Raf-1 proto-oncogene, serine/threonine kinase): #1 -2; #2 -0.701; #3 -1.25
HSPB8 (heat shock protein family B (small) member 8): #1 2.55; #2 1.97; #3 0.0605
HSPA13 (heat shock protein family A (Hsp70) member 13): #1 -0.687; #2 -0.873; #3 0.62
TMEM50A (transmembrane protein 50A): #1 0.775; #2 0.967; #3 -0.63
RPL23AP2 (ribosomal protein L23a pseudogene 2): #1 0.783; #2 0.825; #3 0.18
ZNF35 (zinc finger protein 35): #1 -1.01; #2 -0.166; #3 0.369
